Results taken from paper doi:10.1101/2025.07.22.666130.

Tested on: RPA heterotrimer (RPA70:RPA32:RPA14) (human)
Test: pull-down
Details: 6 uM each, indirect: ssDNA enhanced RPA retention on GST-RAD52-CTD

“GAAGCATTTATCAGGGTTATTGTCTCATGAGCGGATACATATTTGAAT [no. 211 48-mer ssDNA]”: binds.

For at least one entry, the source does not settle the construct or the ends of the probe. At least one verdict was read from the data and is not stated in words by the source.
